# Measured values as given in paper doi:10.1101/2024.12.01.621710 (bioRxiv, 2024).
# These are yes or no findings as the source states them, for the method shown. In cells and extracts the contact can be indirect. Binding calls can cover weak binding; strength is not graded here.
# How the values were obtained:
# [1] = target: IncA-FLAG (Chlamydia trachomatis serovar L2 (LGV 434/Bu)); experiment: co-IP
# [2] = target: CpoS-HA, full length (CTL0481) (Chlamydia trachomatis serovar L2 (LGV 434/Bu)); experiment: co-IP
Substance,binding [1],binding [2]
"CpoS-HA, full length (CTL0481) (from UniProt A0A0H3MBY4)",binds,
eGFP-Rab35 (from UniProt Q15286 1-201),,binds
